PubChem BioAssay AID720710 – VTT Finland, 2013

Test: 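Genes whose loss lowers DNA synthesis when an oncogene drives replication stress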 (primary screen)
Cell system: human U-2 OS bone cancer cells, parental and a cyclin E (CCNE1) overexpressing line
Reagents: single siRNA against human genes, 1 µM siRNA in the printed spot mix
Time to read-out: 67 h
Treatment: half the arrays: hydroxyurea 2 mM for 16 h, then 3 h recovery; other arrays untreated
Detection: 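DNA synthesis measured as imaged EdU uptake per nucleus (DAPI) at 67 h, normalised to subgrid median and given as z-score versus non-targeting controls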
Scale: EdU z-score, cyclin E line, hydroxyurea: higher = more DNA synthesis than non-targeting controls
Shown is a random part of about 1,380 reagents tested. 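One array per condition without replicates; hydroxyurea arrays received 2 mM for 16 h plus 3 h recovery.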 The numbers tell different reagents against one gene apart. Not all columns of the deposit are shown.

TK1 #1 → EdU z-score, cyclin E line, hydroxyurea: -1.75
TK1 #2 → EdU z-score, cyclin E line, hydroxyurea: 1.08
POLD3 #1 → EdU z-score, cyclin E line, hydroxyurea: -1.49
POLD3 #2 → EdU z-score, cyclin E line, hydroxyurea: -0.228
SMC4 #1 → EdU z-score, cyclin E line, hydroxyurea: 0.75
SMC4 #2 → EdU z-score, cyclin E line, hydroxyurea: 0.864
OGG1 #1 → EdU z-score, cyclin E line, hydroxyurea: -1.19
OGG1 #2 → EdU z-score, cyclin E line, hydroxyurea: 0.618
H2BC12 #1 → EdU z-score, cyclin E line, hydroxyurea: 1.02
H2BC12 #2 → EdU z-score, cyclin E line, hydroxyurea: 1.55
TRIM32 #1 → EdU z-score, cyclin E line, hydroxyurea: 0.0655
TRIM32 #2 → EdU z-score, cyclin E line, hydroxyurea: 0.494
SOX1 #1 → EdU z-score, cyclin E line, hydroxyurea: -1.15
SOX1 #2 → EdU z-score, cyclin E line, hydroxyurea: -0.913
BTG2 #1 → EdU z-score, cyclin E line, hydroxyurea: -0.107
BTG2 #2 → EdU z-score, cyclin E line, hydroxyurea: 0.335
IP6K3 #1 → EdU z-score, cyclin E line, hydroxyurea: 0.476
IP6K3 #2 → EdU z-score, cyclin E line, hydroxyurea: 1.37
MCM8 #1 → EdU z-score, cyclin E line, hydroxyurea: -1.48
MCM8 #2 → EdU z-score, cyclin E line, hydroxyurea: -1.43
CREBBP #1 → EdU z-score, cyclin E line, hydroxyurea: 0.108
CREBBP #2 → EdU z-score, cyclin E line, hydroxyurea: 2.23
SEM1 #1 → EdU z-score, cyclin E line, hydroxyurea: -1.42
SEM1 #2 → EdU z-score, cyclin E line, hydroxyurea: -0.0895
RNF144B #1 → EdU z-score, cyclin E line, hydroxyurea: -1.99
RNF144B #2 → EdU z-score, cyclin E line, hydroxyurea: -0.756
SMG6 #1 → EdU z-score, cyclin E line, hydroxyurea: -0.981
SMG6 #2 → EdU z-score, cyclin E line, hydroxyurea: -0.422
NCAPG #1 → EdU z-score, cyclin E line, hydroxyurea: -0.479
NCAPG #2 → EdU z-score, cyclin E line, hydroxyurea: 0.505
LOC730323 #1 → EdU z-score, cyclin E line, hydroxyurea: 0.697
LOC730323 #2 → EdU z-score, cyclin E line, hydroxyurea: 2.02

Reformatted: results already given
Gene | siRNA no. | EdU z-score, cyclin E line, hydroxyurea
CREBBP | 1 | 0.108
CREBBP | 2 | 2.23
SEM1 | 1 | -1.42
SEM1 | 2 | -0.0895
RNF144B | 1 | -1.99
